In one data set the test system is CmoDREB2A-His. Nature of the data set: EMSA. The following applies: EMSA gel in Tris-borate EDTA, 100 V, 60 min, 4 C, binding buffer, salt and pH not stated, recombinant protein, protein details: His (pET28a), label: 6-FAM.
Another data set deals with CmoNAC1-GST. The data set is described as follows: EMSA. The following applies: EMSA gel in Tris-borate EDTA, 100 V, 60 min, 4 C; binding buffer, salt and pH not stated; recombinant protein; protein details: GST (pGEX-4T-2); label: 6-FAM.

The exact form of at least one protein or probe is not confirmed.

On to “ATGCCGACGGTGATTACGACAT (double strand) [CmoHAK5;1 promoter DRE probe]”, for which, in the data set with CmoDREB2A-His, the binding result is “binds”.

Take “ATGCCGACGTCAGTCTCTTCTT (double strand) [CmoHAK5;2 promoter DRE probe]”: the binding result with CmoDREB2A-His is “binds”.

As for “TACGTATATATTTCGCAACTTT (double strand) [CmoDREB2A promoter NACbs probe]”, the binding result in the data set with CmoNAC1-GST is listed as “binds”.

For “TGGCCGACTTTGCCCGTGATCT (double strand) [CmoNAC1 promoter DRE probe]”, the binding result in the data set on CmoDREB2A-His (unlabeled probe decreased the shift) is reported as “binds”.

For the origin of these results see publication PMC11077054.
